In patent US20220356255A1 (CENTESSA PHARMACEUTICALS UK, published 2022):
No constants are given. Whether binding was seen depends on the method and setting. Some results given as binding are weak or reduced against the parent protein; the word gives no strength.

Sequences of proteins named here, by UniProt entry; tags and fusion partners are left off. A change or cut given only in a name is not applied to a line headed by its entry. A line that says so, or that is headed by a name, gives the form on record, which may keep a tag or linker.
cynomolgus PD-L1 on transfected HEK293FF cells (G7PSE7, form named): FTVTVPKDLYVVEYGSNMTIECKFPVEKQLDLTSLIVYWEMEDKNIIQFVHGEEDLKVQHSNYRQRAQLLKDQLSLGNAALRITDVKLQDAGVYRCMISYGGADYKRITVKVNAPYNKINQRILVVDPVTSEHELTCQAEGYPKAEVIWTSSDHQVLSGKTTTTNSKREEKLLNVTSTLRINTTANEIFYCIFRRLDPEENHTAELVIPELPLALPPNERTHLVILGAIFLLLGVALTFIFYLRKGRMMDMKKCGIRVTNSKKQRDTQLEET

Target: cynomolgus PD-L1 on transfected HEK293FF cells (cynomolgus) (UniProt G7PSE7)
Experiment: assay not given; methods describe flow cytometry on transfected HEK293FF cells

binding: binds
B1: mAb 2A09 (antibody, V domains shown)
VH: QVQLVQSGGGVVQPGRSLRLSCAASGFTFSSYGMYWVRQAPGKGLEWVAVISYDGSNKYYADSVKGRFTISRDNSKNTLNLQMNSLRAEDTAVYYCAKGALTHWGVVIGDGMDVWGQGTTVTVSS
VL: NFMLTQPHSVSESPGKTVTISCTRSSGSIASNYVQWYQQRPGSSPTTVIYEDDQRPSGVPDRFSGSIDSSSNSASLTISGLKTEDEADYYCQSFDSTNPWVFGGGTKLTVL
notes: Fully human; also called 2A09_WT; 2A09 WT
